This passage reports binding results from paper PMC10585743.

The chains behind the UniProt entries cited, without tags or fusion partners. Residues count along the entry.
UniProt O60486, residues 35-1568: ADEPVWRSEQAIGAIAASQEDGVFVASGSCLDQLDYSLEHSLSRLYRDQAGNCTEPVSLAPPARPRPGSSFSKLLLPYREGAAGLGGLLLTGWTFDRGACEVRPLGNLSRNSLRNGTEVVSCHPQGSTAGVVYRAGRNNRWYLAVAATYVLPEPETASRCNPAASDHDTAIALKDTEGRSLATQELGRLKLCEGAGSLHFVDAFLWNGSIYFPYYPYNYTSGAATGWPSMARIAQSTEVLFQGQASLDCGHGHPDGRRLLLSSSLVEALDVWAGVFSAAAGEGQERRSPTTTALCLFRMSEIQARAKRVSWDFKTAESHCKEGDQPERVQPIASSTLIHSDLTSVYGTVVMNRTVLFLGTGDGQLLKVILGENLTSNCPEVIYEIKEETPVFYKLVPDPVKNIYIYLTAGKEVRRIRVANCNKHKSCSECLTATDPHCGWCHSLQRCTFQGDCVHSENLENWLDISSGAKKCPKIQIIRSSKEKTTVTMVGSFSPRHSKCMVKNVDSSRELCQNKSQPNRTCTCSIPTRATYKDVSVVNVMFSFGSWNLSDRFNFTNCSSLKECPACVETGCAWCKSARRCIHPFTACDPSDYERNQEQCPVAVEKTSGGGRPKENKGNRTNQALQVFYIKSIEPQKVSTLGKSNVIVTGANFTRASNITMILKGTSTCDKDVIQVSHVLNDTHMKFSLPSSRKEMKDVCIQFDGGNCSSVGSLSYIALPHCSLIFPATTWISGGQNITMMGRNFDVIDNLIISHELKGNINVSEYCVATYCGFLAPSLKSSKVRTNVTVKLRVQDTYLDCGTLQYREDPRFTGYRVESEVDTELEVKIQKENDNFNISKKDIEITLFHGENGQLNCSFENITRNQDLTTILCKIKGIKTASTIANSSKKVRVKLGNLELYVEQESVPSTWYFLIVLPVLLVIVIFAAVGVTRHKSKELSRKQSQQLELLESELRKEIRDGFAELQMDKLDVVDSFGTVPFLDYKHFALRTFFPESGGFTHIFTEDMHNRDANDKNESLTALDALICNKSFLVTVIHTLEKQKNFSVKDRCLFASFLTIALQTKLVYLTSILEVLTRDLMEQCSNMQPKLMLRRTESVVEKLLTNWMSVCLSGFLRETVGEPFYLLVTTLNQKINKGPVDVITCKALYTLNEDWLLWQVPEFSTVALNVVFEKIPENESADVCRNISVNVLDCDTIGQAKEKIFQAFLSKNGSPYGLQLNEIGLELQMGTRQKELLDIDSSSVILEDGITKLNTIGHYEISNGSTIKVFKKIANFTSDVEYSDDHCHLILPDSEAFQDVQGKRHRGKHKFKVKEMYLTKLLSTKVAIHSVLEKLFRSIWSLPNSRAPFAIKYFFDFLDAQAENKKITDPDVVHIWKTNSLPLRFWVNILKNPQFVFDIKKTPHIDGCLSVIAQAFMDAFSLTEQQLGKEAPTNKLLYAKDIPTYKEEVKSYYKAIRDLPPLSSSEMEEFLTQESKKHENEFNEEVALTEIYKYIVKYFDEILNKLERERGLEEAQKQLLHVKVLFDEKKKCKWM
UniProt P11021, residues 19-654: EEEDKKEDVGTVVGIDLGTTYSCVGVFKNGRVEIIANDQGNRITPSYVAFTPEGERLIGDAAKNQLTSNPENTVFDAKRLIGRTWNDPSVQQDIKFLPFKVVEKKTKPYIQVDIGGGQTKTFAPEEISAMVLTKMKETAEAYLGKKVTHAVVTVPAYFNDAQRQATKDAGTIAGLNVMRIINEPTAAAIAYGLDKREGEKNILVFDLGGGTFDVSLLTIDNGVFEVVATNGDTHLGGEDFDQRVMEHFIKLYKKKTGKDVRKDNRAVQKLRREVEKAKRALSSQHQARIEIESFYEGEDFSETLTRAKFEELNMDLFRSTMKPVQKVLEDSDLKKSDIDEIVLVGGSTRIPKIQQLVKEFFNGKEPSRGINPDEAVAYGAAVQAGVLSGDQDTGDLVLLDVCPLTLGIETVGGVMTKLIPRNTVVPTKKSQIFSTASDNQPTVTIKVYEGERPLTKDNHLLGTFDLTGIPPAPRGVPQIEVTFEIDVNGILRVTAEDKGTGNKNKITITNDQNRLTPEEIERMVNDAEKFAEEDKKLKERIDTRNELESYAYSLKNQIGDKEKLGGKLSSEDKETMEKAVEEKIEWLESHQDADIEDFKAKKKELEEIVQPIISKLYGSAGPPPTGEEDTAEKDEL

Results are given in words; binding and its absence hold for the method and conditions named. Binding seen in cells or lysates may run through a third protein. Some results given as binding are weak or reduced against the parent protein; the word gives no strength.

The test deals with Plexin C1 (PLXNC1) (human (endogenous in CHON-001)) (UniProt O60486). The test can be described thus: co-IP; lysates of IL-1β-treated CHON-001 cells; 2 μg anti-PLXNC1 or anti-GRP78 antibody or goat anti-mouse IgG, protein A/G beads (Co-IP kit); PLXNC1 and GRP78 detected by western blotting.

For the substance “glucose-regulating protein 78 (GRP78) (from UniProt P11021 19-654)”, the binding entry is “binds”.
